# PubChem BioAssay AID1347076 (National Center for Advancing Translational Sciences (NCATS), 2019)
# The whole screen tested about 400,000 compounds, of which about 13,000 (3.2%) were called active. Inconclusive means that the source gave no clear call. Such entries were picked first, then a sample of the others. Calls come from the whole dose curve; as a rule, active = well fitted cell-killing curve with a large enough effect; inconclusive = small, poorly fitted or top-dose-only effect, or effect the other way; inactive = flat fitted curve, though single readings scatter. Where the call is inconclusive, the potency comes from a doubtful curve fit.
# Assay: qHTS assay for MDR1-selective chemotherapeutics: Primary screen using the drug-selected MDR subline cells KB-V1; note: nearly all actives have a fitted effect of over 60% in size
# Details: KB-V1 MDR cells viability, CellTiter-Glo, 72 h; activity change, negative = cytotoxicity: at 46.1 µM (top of the series)
# Method in brief: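 Following 72 h at 37 degrees C with compound, KB-V1 cell viability was read by CellTiter-Glo luminescence, medium being phenol-red-free DMEM plus 10% FBS; concentration-response parameters came from normalized, curve-fitted qHTS data.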
# % is set by controls: 0 for no effect and ±100 for the full control effect; potency is the fitted concentration of half-maximal effect.
Compound,Potency,"activity change, negative = cytotoxicity"
O=C(Nc1ccc(Cl)cc1)C1CC2CCCC(C1)C2=O (stereo unspecified),"inconclusive: 20.6 µM [cytotoxic, partial curve]",–
CCOCCc1nnc(NC(=O)C(=O)c2cc(C)n(-c3ccc(C)c(C)c3)c2C)s1,–,inactive: -4.37%
CCOC(=O)c1nn(-c2ccccc2F)c(C)c1C(C)=O,"inconclusive: 0.58 µM [cytotoxic, full curve, poor fit]",–
C[C@@H]1O[C@@H](O[C@H]2[C@H](Oc3cc(O)c4c(c3)OC(c3ccc(O)cc3)CC4=O)O[C@H](CO)[C@@H](O)[C@@H]2O)[C@H](O)[C@H](O)[C@H]1O (stereo partly specified),–,inactive: 13.1%
O=C(Nc1ccc(Cl)cc1)c1nc[nH]c1C(=O)NCCN(CCNC(=O)c1[nH]cnc1C(=O)Nc1ccc(Cl)cc1)CCNC(=O)c1[nH]cnc1C(=O)Nc1ccc(Cl)cc1,"inconclusive: 20.6 µM [rising, single point]",–
COC(=O)c1ccc2nc(-c3ccc(C)cc3)c(Cc3cccc(F)c3)n2c1,"inconclusive: 20.6 µM [cytotoxic, partial curve, poor fit]",–
Cc1ccc(NC(=O)CN2CCC(Cc3ccccc3)CC2)cc1S(=O)(=O)N(C)C,"inconclusive: 32.6 µM [rising, single point]",–
N#CC(C#N)=C1C=C2C=C(N3CCCCCC3)CCC2CC1 (stereo unspecified),"inconclusive: 23.1 µM [cytotoxic, single point]",–
CC(=O)N1c2ccc(S(=O)(=O)N3CCC(C(=O)Nc4cccc(Cl)c4C)CC3)cc2CC1C (stereo unspecified),–,inactive: -23.3%
O=C(/C=C/Nc1ccc(S(=O)(=O)Nc2cnc3ccccc3n2)cc1)c1ccccc1,"inconclusive: 29.1 µM [rising, single point]",–
O=C(NCCCN1CCN(c2cccc(Cl)c2)CC1)c1nc(-c2ccncc2)no1,active: 4.11 µM,–
NS(=O)(=O)c1ccc(NC(=O)COC(=O)COc2ccc(Cl)cc2)cc1,–,inactive: -2.77%
CCCn1c(=O)c(C(=O)NCC2CCCO2)c(O)c2ccccc21 (stereo unspecified),"inconclusive: 3.66 µM [cytotoxic, partial curve, poor fit]",–
CCOC(=O)Nc1ccc2c(c1)nc(CN1CCOCC1)n2C,–,inactive: 7.52%
COc1ccc(Nc2nc(-c3cccc([N+](=O)[O-])c3)nc3ccccc23)cc1,"inconclusive: 25.9 µM [cytotoxic, single point]",–
CSCCC(NS(=O)(=O)c1ccc(Cl)cc1)C(=O)OCC(=O)NC1CC1 (stereo unspecified),"inconclusive: 29.1 µM [rising, single point]",–
Cc1ccsc1/C=N/NC(=O)c1ccccn1,"inconclusive: 18.4 µM [cytotoxic, partial curve]",–
Cc1cccc(Cn2cc(S(=O)(=O)c3ccccc3)c(=O)c3cc(F)c(N4CCOCC4)cc32)c1,–,inactive: 3.21%
Nc1[nH]c(=O)nc2snnc12,"inconclusive: 18.4 µM [cytotoxic, single point]",–
CCCc1nc2ccccc2n1CCc1ccccc1,"inconclusive: 2.59 µM [cytotoxic, partial curve, poor fit]",–
COc1ccc(NS(=O)(=O)c2cccc(C(=O)NCc3ccco3)c2)cc1,"inconclusive: 20.6 µM [cytotoxic, single point]",–
NC(Cc1ccc(F)cc1)c1csc(Nc2cc(Oc3ccccc3)ncn2)n1 (stereo unspecified),"inconclusive: 29.1 µM [cytotoxic, single point]",–

Compound,Potency,"activity change, negative = cytotoxicity"
CC(Oc1ccc(Br)cc1)C(=O)Nc1ccncc1 (stereo unspecified),–,inactive: 0%
O=C(Nc1ccc(CN2CCOCC2)cc1)c1ccc(Cl)cc1,active: 9.2 µM,–
COc1cc(C(=S)N2CCOCC2)cc(OC)c1OC(=O)c1ccc(F)cc1,–,inactive: 0%
O=[N+]([O-])c1cccc(S(=O)(=O)N/N=C\c2ccc3c(c2)OCO3)c1,"inconclusive: 0.0041 µM [rising, full curve, poor fit]",–
CN(C)/C=N/c1ncc(-c2ncc(C(F)(F)F)cc2Cl)cn1,active: 10.3 µM,–
C=CCn1c(SCC(=O)Nc2cccc(S(=O)(=O)N(C)c3ccccc3)c2)nnc1C1CC1,"inconclusive: 29.1 µM [cytotoxic, single point]",–
CC(C)C[C@H](NC(=O)c1nc[nH]c1C(=O)NC(c1ccccc1)c1ccccc1)C(=O)OCc1ccccc1,"inconclusive: 32.6 µM [cytotoxic, partial curve, poor fit]",–
COc1ccc(N2CCN(CCCNC(=O)c3nnc(Cc4ccc(F)cc4)o3)CC2)cc1,–,inactive: -22.4%
Cc1cccc(Nc2nc(-c3ccccn3)cs2)n1,active: 0.517 µM,–
Cc1ccc(S(=O)(=O)NN=C2CC(C)(C)CC(=O)C2(C)C)cc1,"inconclusive: 25.9 µM [cytotoxic, partial curve, poor fit]",–
COc1cccc(-c2cc(NC=O)c3ncc(-c4cccc(C(=O)N(C)C)c4)n3c2)c1,"inconclusive: 29.1 µM [cytotoxic, single point]",–
O=c1c2c(n3cnnc3n1-c1ccccc1)-c1ccccc1CC21CCCCC1,"inconclusive: 9.2 µM [cytotoxic, partial curve, poor fit]",–
CCOC(=O)c1oc2ccc(S(=O)(=O)n3nc(-c4ccc(OC)cc4)cc3N)cc2c1C,"inconclusive: 16.4 µM [cytotoxic, single point]",–
CNC(=O)C1CCN(S(=O)(=O)c2c(C)noc2/C=C/c2cccc(OC)c2)CC1,–,inactive: 1.7%
N#C/C(=C\c1ccc(Cl)cc1)c1n[nH]c(Cn2cncn2)n1,"inconclusive: 29.1 µM [rising, single point]",–
CCSc1ccccc1C(=O)N1CCN(c2ccc([N+](=O)[O-])cc2)CC1,"inconclusive: 9.2 µM [cytotoxic, partial curve]",–
CCOC(=O)CSc1nc2ccsc2c(=O)[nH]1,"inconclusive: 18.4 µM [rising, partial curve, poor fit]",–
CC(=O)N1CCN(S(=O)(=O)c2cccc(C(=O)NNC(=O)COc3c(C)cccc3C)c2)CC1,"inconclusive: 29.1 µM [rising, single point]",–
CCOC(=O)c1ccc(NC(=O)CCCc2nc(-c3cc(OC)c(OC)c(OC)c3)no2)cc1,–,inactive: 0%
CC(/C=C/c1ccccc1)=N/NC(=O)C(O)c1ccccc1 (stereo unspecified),"inconclusive: 16.4 µM [rising, single point]",–
Cc1nc2ccc(NS(=O)(=O)c3c(C)c(C)cc(C)c3C)cc2s1,"inconclusive: 18.4 µM [cytotoxic, single point]",–
CCCCNC(=O)c1c(O)c2cccc3c2n(c1=O)CCC3,–,inactive: 5.26%

Compound,Potency,"activity change, negative = cytotoxicity"
CCC(C(=O)NCc1ccco1)N(C(=O)CNS(=O)(=O)c1ccccc1)c1ccc(F)cc1 (stereo unspecified),"inconclusive: 5.8 µM [cytotoxic, partial curve]",–
CCCNC(=O)C1CCC(Cn2c(=O)c3sccc3n(CC(=O)NCc3ccccc3)c2=O)CC1 (stereo unspecified),"inconclusive: 29.1 µM [rising, single point]",–
O=C(CN1C=NS(=O)(=O)c2ccccc21)Nc1ccccc1F,"inconclusive: 16.4 µM [rising, partial curve, poor fit]",–
O=C(NCC(=O)N1CCN(S(=O)(=O)c2ccccc2F)CC1)c1ccc(Br)o1,"inconclusive: 18.4 µM [cytotoxic, partial curve, poor fit]",–
CC(C)C(c1nnnn1Cc1ccccc1)N(Cc1ccco1)Cc1cccs1 (stereo unspecified),"inconclusive: 23.1 µM [cytotoxic, single point]",–
O=C(CNCc1cccs1)Nc1ccc(S(=O)(=O)N2CCCCC2)cc1,"inconclusive: 20.6 µM [cytotoxic, partial curve, poor fit]",–
Cc1ccc(C(=O)Nc2ccc(Cl)cc2C)c(Cl)c1,active: 16.4 µM,–
COC(=O)c1sccc1NC(=O)c1c(Cl)cccc1Cl,"inconclusive: 8.2 µM [cytotoxic, partial curve]",–
CCOc1ccc(S(=O)(=O)N(CC(=O)Nc2ccc(OC)cc2OC)c2ccccc2)cc1,–,inactive: -21.7%
COc1ccc2nc(SCc3cccc(C)c3)nc(C)c2c1,active: 16.4 µM,–
CCC(C)NS(=O)(=O)c1cc2c3c(c1)CCN3C(=O)CC2 (stereo unspecified),–,inconclusive: 1.46%
CN(C)c1ccc(C(=S)NC2CCCCC2)cc1,–,inactive: 11.2%
CC(C)(C)NC(=S)N/N=C/c1cc(Br)c(O)c(Br)c1,"inconclusive: 18.4 µM [cytotoxic, single point]",–
CCOC(=O)c1cnc(SCC#N)nc1N,"inconclusive: 16.4 µM [rising, partial curve, poor fit]",–
OC(Cc1ccccc1)c1ncc(-c2ccc(Cl)cc2)[nH]1 (stereo unspecified),active: 11.6 µM,–
Cc1cccc2nc(Cn3c(=O)n(-c4ccc(Cl)cc4)c(=O)c4c5c(sc43)CCC5)cc(=O)n12,"inconclusive: 18.4 µM [rising, single point]",–
COc1ccc(-c2nc3ccccc3o2)cc1NC(=O)COc1ccc(C)c(C)c1,"inconclusive: 8.2 µM [cytotoxic, partial curve, poor fit]",–
O=C(CSc1nnc(CN2CCOCC2)n1-c1ccc(Cl)cc1)Nc1cc(Cl)ccc1O,"inconclusive: 20.6 µM [cytotoxic, single point]",–
COc1ccc(C)cc1N(C(=O)Cn1nnc(-c2ccc(C)o2)n1)C(C(=O)NC1CCCC1)c1ccncc1 (stereo unspecified),"inconclusive: 20.6 µM [cytotoxic, partial curve, poor fit]",–
CCc1ccc(NC2=NC(C(=O)c3ccccc3)CC(=O)N2)cc1 (stereo unspecified),"inconclusive: 13 µM [rising, single point]",–
Cc1onc(-c2c(F)cccc2Cl)c1C(=O)Oc1ccccc1,"inconclusive: 29.1 µM [cytotoxic, single point]",–
CC(NC(=O)COC(=O)c1cn(-c2ccccc2)nc1-c1cccs1)c1ccccc1 (stereo unspecified),active: 20.6 µM,–

# Sorted by SMILES length (rising): part of the list above
Compound,Potency,"activity change, negative = cytotoxicity"
CCOC(=O)c1nn(-c2ccccc2F)c(C)c1C(C)=O,"inconclusive: 0.58 µM [cytotoxic, full curve, poor fit]",–
OC(Cc1ccccc1)c1ncc(-c2ccc(Cl)cc2)[nH]1 (stereo unspecified),active: 11.6 µM,–
N#C/C(=C\c1ccc(Cl)cc1)c1n[nH]c(Cn2cncn2)n1,"inconclusive: 29.1 µM [rising, single point]",–
CCOCCc1nnc(NC(=O)C(=O)c2cc(C)n(-c3ccc(C)c(C)c3)c2C)s1,–,inactive: -4.37%
